We go through 2 substances from paper doi:10.1101/2020.09.14.296178.

Protein sequences, listed by entry. Tags and fused reporters are not part of them.
UniProt P35579: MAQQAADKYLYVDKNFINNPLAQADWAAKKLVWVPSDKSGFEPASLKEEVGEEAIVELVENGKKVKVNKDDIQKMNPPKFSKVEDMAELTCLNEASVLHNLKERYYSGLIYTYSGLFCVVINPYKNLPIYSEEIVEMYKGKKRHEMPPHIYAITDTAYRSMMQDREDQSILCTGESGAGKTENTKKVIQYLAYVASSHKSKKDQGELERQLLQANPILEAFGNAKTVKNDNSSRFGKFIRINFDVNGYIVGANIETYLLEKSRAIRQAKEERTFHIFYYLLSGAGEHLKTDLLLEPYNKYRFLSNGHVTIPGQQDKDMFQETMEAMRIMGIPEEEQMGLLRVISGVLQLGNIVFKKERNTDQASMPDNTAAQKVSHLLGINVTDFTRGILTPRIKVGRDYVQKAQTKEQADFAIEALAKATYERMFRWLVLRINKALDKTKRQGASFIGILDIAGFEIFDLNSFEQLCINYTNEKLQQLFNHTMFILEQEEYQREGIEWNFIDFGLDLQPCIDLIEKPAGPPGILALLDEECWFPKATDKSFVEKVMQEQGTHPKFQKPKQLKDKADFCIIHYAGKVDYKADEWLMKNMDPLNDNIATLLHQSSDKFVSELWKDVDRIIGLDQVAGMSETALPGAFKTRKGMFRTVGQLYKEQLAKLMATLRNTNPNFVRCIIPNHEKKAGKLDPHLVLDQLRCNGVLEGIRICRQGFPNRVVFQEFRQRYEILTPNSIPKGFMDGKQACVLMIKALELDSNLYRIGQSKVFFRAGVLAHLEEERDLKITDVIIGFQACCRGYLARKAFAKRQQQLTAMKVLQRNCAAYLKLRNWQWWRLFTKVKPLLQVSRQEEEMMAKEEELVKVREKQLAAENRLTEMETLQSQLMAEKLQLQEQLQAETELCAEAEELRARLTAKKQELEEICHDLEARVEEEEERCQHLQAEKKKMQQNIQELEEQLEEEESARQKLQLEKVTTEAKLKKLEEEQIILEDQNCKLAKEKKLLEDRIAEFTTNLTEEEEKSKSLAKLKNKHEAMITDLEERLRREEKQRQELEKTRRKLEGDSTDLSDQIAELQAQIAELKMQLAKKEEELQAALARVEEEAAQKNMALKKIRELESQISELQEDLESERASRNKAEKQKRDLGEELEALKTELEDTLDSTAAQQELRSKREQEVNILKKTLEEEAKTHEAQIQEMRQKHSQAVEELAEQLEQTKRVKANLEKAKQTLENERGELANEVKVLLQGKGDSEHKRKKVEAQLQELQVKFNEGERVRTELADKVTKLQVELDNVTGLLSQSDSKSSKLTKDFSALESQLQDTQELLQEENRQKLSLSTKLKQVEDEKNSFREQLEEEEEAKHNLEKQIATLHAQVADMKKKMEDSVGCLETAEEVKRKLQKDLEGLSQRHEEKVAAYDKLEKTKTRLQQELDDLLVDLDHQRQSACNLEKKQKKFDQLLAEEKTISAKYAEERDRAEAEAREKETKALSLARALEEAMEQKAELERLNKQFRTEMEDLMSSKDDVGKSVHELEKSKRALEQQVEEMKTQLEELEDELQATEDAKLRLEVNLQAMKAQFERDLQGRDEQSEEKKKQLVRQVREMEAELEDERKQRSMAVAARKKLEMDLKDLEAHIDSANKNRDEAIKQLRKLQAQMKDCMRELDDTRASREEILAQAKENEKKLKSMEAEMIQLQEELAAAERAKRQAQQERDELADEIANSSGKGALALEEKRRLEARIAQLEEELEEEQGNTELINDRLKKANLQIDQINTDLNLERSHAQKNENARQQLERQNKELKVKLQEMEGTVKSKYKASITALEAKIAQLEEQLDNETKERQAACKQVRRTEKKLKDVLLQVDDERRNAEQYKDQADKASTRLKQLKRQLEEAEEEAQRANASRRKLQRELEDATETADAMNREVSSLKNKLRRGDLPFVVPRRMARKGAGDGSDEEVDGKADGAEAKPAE
UniProt P35580: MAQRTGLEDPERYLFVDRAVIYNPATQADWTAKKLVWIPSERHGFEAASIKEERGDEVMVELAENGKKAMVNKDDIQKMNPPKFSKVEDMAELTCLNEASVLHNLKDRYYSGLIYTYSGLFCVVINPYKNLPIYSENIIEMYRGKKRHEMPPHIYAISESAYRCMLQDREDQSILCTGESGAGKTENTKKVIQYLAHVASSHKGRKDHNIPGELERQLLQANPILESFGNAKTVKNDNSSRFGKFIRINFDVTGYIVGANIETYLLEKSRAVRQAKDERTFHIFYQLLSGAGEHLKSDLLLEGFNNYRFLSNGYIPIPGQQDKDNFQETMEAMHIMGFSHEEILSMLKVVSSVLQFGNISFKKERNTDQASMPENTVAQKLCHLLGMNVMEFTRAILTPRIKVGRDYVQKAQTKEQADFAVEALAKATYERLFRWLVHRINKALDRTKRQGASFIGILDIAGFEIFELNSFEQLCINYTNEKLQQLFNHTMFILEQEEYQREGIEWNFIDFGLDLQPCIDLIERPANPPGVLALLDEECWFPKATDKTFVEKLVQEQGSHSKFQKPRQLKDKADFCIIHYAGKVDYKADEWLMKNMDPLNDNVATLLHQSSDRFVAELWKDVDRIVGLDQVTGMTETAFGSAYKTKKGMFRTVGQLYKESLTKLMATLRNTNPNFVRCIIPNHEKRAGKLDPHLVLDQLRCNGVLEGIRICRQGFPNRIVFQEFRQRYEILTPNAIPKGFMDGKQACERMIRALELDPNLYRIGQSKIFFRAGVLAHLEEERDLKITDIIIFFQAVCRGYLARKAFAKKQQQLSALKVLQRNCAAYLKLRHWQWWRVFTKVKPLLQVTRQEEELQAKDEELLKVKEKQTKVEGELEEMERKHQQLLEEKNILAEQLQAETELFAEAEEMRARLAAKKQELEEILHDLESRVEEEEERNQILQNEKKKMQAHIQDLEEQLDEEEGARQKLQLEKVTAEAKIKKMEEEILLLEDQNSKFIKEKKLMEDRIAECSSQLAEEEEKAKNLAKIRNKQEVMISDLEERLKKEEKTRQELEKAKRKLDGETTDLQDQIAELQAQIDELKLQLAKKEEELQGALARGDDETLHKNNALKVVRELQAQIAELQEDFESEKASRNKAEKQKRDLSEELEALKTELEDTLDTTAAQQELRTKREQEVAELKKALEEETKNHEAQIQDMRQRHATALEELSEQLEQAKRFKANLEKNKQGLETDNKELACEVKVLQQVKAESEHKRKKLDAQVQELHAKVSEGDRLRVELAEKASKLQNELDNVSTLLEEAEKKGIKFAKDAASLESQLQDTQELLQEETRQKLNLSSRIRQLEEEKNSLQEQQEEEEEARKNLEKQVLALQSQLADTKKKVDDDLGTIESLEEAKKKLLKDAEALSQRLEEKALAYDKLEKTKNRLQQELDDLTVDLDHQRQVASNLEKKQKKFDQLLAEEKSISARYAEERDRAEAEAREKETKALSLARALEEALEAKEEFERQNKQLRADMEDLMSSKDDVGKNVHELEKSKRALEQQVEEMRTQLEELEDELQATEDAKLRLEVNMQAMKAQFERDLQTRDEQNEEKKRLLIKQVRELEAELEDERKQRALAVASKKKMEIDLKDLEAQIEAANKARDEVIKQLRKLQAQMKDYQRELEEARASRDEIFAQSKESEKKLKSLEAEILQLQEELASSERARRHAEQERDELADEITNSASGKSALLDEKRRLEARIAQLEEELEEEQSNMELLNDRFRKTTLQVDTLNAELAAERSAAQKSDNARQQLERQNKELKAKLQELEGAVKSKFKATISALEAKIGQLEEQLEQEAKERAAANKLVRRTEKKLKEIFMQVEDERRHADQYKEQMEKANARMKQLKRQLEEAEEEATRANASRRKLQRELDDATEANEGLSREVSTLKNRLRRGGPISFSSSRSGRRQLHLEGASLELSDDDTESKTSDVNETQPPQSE

In the assay the target is T1, EGFP-tagged wild-type PKP2 (UniProt Q99959).
T1 sequence: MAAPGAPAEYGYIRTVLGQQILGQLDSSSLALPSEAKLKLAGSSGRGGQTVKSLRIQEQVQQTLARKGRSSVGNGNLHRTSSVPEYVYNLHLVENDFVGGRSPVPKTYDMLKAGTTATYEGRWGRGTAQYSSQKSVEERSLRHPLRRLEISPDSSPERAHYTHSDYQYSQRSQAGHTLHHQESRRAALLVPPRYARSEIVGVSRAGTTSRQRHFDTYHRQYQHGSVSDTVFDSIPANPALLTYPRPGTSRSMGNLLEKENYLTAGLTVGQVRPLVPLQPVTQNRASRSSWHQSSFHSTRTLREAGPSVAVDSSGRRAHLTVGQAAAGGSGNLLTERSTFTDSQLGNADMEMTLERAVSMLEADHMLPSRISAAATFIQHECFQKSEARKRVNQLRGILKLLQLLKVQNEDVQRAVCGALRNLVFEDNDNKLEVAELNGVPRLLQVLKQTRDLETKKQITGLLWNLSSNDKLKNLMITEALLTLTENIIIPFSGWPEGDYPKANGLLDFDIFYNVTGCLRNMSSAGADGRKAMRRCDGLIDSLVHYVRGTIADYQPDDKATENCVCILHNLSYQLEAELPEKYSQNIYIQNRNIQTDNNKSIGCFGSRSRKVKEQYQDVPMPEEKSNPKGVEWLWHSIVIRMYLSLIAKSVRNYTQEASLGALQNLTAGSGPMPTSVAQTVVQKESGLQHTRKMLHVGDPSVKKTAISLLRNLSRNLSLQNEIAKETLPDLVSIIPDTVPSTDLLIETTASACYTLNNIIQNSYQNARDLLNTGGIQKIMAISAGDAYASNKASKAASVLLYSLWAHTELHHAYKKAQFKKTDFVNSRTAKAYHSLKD
Description: co-IP.

These are yes or no findings as the source states them, for the method shown. Binding seen in cells or lysates may run through a third protein. Some entries that bind do so weakly or less than the wild type. Sequences can lack the tags named with a protein.

In the case of “myosin 9 (Myh9), non-muscle myosin heavy chain II-A (from UniProt P35579 1-1960)”, the binding entry is reported as “binds”.

Regarding “myosin 10 (Myh10), non-muscle myosin heavy chain II-B (from UniProt P35580 1-1976)”, the binding result is “binds”.
